These are yes or no findings as the source states them, for the method shown. In cells and extracts the contact can be indirect. These calls come from enrichment with a bait or labelling near it, and not all partners need be listed. Where a sequence is shown, tags or fusion partners need not be part of it.
Molecular target: T1, Flag-Slug (human) (UniProt O43623)
T1 sequence: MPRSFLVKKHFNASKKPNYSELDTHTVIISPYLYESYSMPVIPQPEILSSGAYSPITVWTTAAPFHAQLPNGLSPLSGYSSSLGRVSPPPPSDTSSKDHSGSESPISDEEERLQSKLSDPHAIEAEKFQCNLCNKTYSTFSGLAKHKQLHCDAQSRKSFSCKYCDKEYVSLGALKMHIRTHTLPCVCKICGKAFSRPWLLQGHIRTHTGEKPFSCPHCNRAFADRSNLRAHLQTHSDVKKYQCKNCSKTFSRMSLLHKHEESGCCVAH
Assay: affinity purification with mass spectrometry; extracts of HEK293T cells expressing Flag-Slug on anti-Flag M2 agarose, 1.5 h at 4 °C, lysis buffer 50 mM Tris-HCl pH 8.0, 0.2% NP-40, 150 mM NaCl, 2 mM EDTA; eluted with Flag peptide, SDS-PAGE, silver stain, LC-MS/MS

Sequences of proteins named here, by UniProt entry; tags and fusion partners are left off.
UniProt O14744: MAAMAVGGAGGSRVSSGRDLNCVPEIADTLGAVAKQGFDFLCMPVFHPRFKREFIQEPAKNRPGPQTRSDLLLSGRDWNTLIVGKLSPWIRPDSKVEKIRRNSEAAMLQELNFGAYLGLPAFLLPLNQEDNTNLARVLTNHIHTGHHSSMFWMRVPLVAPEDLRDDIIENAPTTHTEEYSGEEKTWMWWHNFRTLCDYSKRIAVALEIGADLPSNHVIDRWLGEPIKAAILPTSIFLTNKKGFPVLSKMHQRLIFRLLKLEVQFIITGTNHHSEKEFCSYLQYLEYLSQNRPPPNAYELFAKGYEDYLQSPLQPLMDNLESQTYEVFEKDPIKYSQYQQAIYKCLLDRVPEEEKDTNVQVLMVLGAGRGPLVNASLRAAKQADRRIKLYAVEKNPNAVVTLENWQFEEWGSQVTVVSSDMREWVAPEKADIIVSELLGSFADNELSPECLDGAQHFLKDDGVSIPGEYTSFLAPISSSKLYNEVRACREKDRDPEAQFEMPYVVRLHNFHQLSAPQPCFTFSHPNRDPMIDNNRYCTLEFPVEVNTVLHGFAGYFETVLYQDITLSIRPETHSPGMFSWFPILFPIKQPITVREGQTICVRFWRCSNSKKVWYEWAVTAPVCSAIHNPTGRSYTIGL

Question: How did the binding turn out when “Protein arginine methyltransferase 5 (endogenous) (from UniProt O14744 1-637) (enzyme)” was run?
Answer: binds
